According to US20230365648A1:
Results are given in words; binding and its absence hold for the method and conditions named. Some binding calls cover weakened binding; strength is not graded here. Tags and fused reporters may be left off the sequences shown.

Amino acid sequences for entries named in this document (tags omitted). Residues count along the entry.
UniProt Q08722, residues 19-323: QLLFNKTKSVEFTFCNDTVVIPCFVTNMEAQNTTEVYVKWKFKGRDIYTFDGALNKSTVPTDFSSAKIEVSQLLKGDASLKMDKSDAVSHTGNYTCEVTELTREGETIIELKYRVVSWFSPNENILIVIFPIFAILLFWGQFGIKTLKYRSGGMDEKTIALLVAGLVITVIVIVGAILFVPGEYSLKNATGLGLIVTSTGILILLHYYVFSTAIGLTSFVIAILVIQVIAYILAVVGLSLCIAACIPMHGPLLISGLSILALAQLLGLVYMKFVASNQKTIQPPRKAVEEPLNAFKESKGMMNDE

How the values were obtained:
[1] = target: CD47 on human CD45 negative red blood cells (human) (UniProt Q08722); experiment: flow cytometry on human whole blood, CD45 negative gate (red blood cells), detection with AF647 anti-human IgG4
[2] = target: Cyno monkey CD47 (Cyno monkey); experiment: BLI (Octet R8), construct captured on anti-human Fc sensor, CD47 in solution

B1: Construct 67 (SIRPα fusion polypeptide of SEQ ID NO: 10, SIRPα domain of SEQ ID NO: 2 and IgG4 Fc domain with a YTE mutation) (Fc fusion)
chain: EEELQIIQPDKSVLVAAGETATLRCTITSLFPVGPIQWFRGAGPGRVLIYNQRQGPFPRVTTVSDTTKRNNMDFSIRIGNITPADAGTYYCIKFRKGSPDDVEFKSGAGTELSVRAKPSAAAPPCPPCPAPEFLGGPSVFLFPPKPKDTLYITREPEVTCVVVDVSQEDPEVQFNWYVDGVEVHNAKTKPREEQFNSTYRVVSVLTVLHQDWLNGKEYKCKVSNKGLPSSIEKTISKAKGQPREPQVYTLPPSQEEMTKNQVSLTCLVKGFYPSDIAVEWESNGQPENNYKTTPPVLDSDGSFFLYSRLTVDKSRWQEGNVFSCSVMHEALHNHYTQKSLSLSLGK
In the case of B1, the binding [1] is reported as “binds” and the binding [2] is reported as “binds”.
